Results as given in US20030027819A1, “Beta-sheet mimetics and methods relating to the use thereof” (Molecumetics Ltd., priority 1996, published 2003).
The match of structure and compound is tentative.

Chains of the proteins cited; added tags and fusions are not shown. Residues count along the entry.
UniProt P08709, 61-212 limits assumed: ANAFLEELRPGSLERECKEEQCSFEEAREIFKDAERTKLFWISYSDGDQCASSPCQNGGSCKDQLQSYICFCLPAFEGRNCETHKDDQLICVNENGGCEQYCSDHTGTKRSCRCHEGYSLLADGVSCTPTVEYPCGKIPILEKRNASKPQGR
UniProt P08709, 213-466 limits assumed: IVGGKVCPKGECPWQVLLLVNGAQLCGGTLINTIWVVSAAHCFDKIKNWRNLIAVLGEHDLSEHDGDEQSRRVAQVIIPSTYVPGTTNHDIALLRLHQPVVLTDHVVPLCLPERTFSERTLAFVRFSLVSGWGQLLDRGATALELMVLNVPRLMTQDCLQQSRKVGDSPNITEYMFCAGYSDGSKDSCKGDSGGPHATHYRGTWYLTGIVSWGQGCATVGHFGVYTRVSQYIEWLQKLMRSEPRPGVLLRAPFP
UniProt P13726, 33-295 partner limits assumed: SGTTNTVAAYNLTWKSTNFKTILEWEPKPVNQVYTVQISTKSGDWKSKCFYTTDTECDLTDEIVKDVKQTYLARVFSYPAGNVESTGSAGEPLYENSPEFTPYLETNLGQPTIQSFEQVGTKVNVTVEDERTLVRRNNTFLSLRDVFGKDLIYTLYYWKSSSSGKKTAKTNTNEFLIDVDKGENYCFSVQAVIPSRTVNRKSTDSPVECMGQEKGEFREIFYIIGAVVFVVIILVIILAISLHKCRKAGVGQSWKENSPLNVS

Target: factor VII (Homo sapiens, UniProt P08709)
Experiment: Factor VII inhibition assay (Ki, Example 5)
Details: read-out: Ki Factor VII

Ki: 200 nM
Compound: N=C(N)NCCC[C@H](NC(=O)[C@@H]1CC[C@@H]2CC[C@@](N)(Cc3ccccc3)C(=O)N21)C(=O)c1nc2ccccc2s1 [Structure 29b]
